Test results taken from the supplement of paper PMC8104966.
The list shows a part of the results. Single values are uncertain here, since repeats match poorly.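 U2OS cells expressing ACE2 were combined with U2OS cells expressing full-length spike, and imaging quantified fusion as the fraction of nuclei displaying both cell types' fluorescent markers. Non-toxic compounds with a fusion z-score under -3, i.e., over three standard deviations below the plate's DMSO wells, are called inhibitory hits.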

These compounds were tested on U2OS ACE2 x SARS-CoV-2 spike co-culture (assay: cell-cell fusion (fraction fused) z-score vs plate DMSO control; higher = more fusion). Conditions: 30 µM; 5 h; toxicity class: non-toxic, passed QC.

SMILES	cell-cell fusion (z-score)
CC(=O)[C@H]1CCC2C3CCC4=CC(=O)CC[C@]4(C)C3[C@H](OC(=O)CCC(=O)O)C[C@@]21C (stereo partly drawn) [11alpha-HYDROXYPROGESTERONE HEMISUCCINATE]	inactive: 2.44
CN(C)CC(=O)OC[C@@H](O)[C@@H](O)[C@H](O)[C@@H](O)C(=O)[O-].[Na+]	inactive: 1.88
CCCCCCCCCCCCCCCCC(C(=O)O)C(O)(CC(=O)O)C(=O)O (stereo not given)	inactive: 2.84
CN1CCC(=C2c3ccccc3CC(=O)c3sccc32)CC1.O=C(O)/C=C/C(=O)O [Ketotifen fumarate]	inactive: 2.63
Cl.O=C(c1ccc(OCCCc2c[nH]cn2)cc1)C1CC1 [Ciproxifan hydrochloride]	inactive: 1.81
C[C@]12CC[C@H](O)C[C@@H]1CC[C@@H]1[C@@H]2CC[C@]2(C)[C@@H](O)CC[C@@H]12 [5alpha-ANDROSTAN-3beta,17beta-DIOL]	inactive: 2
COc1cccc(C=O)c1OC	inactive: 1.22
O=C([O-])CF.[Na+]	inactive: 3.11
COc1ccc(Cl)cc1NC(=O)Nc1cc(C)nc2ccccc12	inactive: -1.13
CN(C)CCc1c[nH]c2ccc(C[C@H]3COC(=O)N3)cc12	inactive: 2.09
C[C@]12CC[C@@H]3c4ccc(OC(=O)c5ccccc5)cc4CC[C@H]3[C@@H]1CC[C@@H]2O [Estradiol benzoate]	inactive: 1.42
S=C(Nc1ccccc1)Nc1nccs1 [1-Phenyl-3-(2-thiazolyl)-2-thiourea]	inactive: 1.32
CN=C(NC#N)NCCSCc1nc[nH]c1C [Cimetidine]	inactive: 2.22
CCOc1cc([C@@H](CS(C)(=O)=O)N2C(=O)c3cccc(NC(C)=O)c3C2=O)ccc1OC [Apremilast]	inactive: 1.86
NC(N)=Nc1nc(CSCC/C(N)=N/S(N)(=O)=O)cs1 [Famotidine]	inactive: 2.8
Cc1cn[nH]c1 [4-Methylpyrazole]	inactive: 3.24
NC(=O)Nc1cc(-c2cccc(F)c2)sc1C(=O)N[C@H]1CCCNC1	inactive: 0.747
CCCCCCCCCCCCCCSCC(=O)O [Tetradecylthioacetic acid]	inactive: 0.506
O=C(O)CCCN1C(=O)c2cccc3cccc(c23)C1=O	inactive: 3.09
COc1cc2nc(N3CCN(C(=O)C4COc5ccccc5O4)CC3)nc(N)c2cc1OC.CS(=O)(=O)O (stereo not given) [Doxazosin mesylate]	inactive: -0.417
COc1cc2nc(N3CCN(C(=O)C4COc5ccccc5O4)CC3)nc(N)c2cc1OC.CS(=O)(=O)O (stereo not given)	inactive: 2.37
CC#C[C@@]1(O)CC[C@H]2[C@@H]3CCC4=CC(=O)CCC4=C3[C@H](c3ccc(N(C)C)cc3)C[C@@]21C [Mifepristone (Mifeprex)]	inactive: 1.44
CC(C)NCC(O)COc1cccc2ccccc12.Cl (racemic)	inactive: -1.92
O=C(Nc1c(Cl)c[n+]([O-])cc1Cl)c1ccc(OC(F)F)c(OCC2CC2)c1 [Roflumilast N-oxide]	inactive: 0.901

SMILES	cell-cell fusion (z-score)
Nc1ncnc2[nH]cnc12	inactive: 2.43
CC(=O)Nc1ccc(OC(C)=O)cc1	inactive: -0.346
CCOC(=O)[C@H](CCc1ccccc1)N[C@H]1CCc2ccccc2N(CC(=O)O)C1=O.Cl [Benazepril hydrochloride]	inactive: 1.29
Cc1c(C(=O)N2CCOc3ccc(-c4ccc(N)nc4)cc3C2)ccc(S(C)(=O)=O)c1F	inactive: 0.167
CCN(CC)CCNC(=O)c1cc(Cl)c(N)cc1OC.Cl [Metoclopramide hydrochloride]	inactive: 2.18
COc1ccccc1OCC(O)CO (stereo not given) [Guaifenesin]	inactive: 2.72
O=C(Nc1cnn2ccc(N3CCC[C@@H]3c3cc(F)ccc3F)nc12)N1CC[C@H](O)C1.O=S(=O)(O)O [Larotrectinib sulfate]	inactive: 1.96
CCN(CC)C(C)CN1c2ccccc2Sc2ccccc21.Cl (stereo not given)	inactive: 0.459
CCN(CC)C(C)CN1c2ccccc2Sc2ccccc21.Cl (stereo not given) [Ethopropazine hydrochloride]	inactive: 2.56
CCC(COC(=O)c1cc(OC)c(OC)c(OC)c1)(c1ccccc1)N(C)C.O=C(O)/C=C\C(=O)O (stereo not given)	inactive: 1.81
CCN(CC)CC#CCOC(=O)C(O)(c1ccccc1)C1CCCCC1.Cl (stereo not given) [Oxybutynin hydrochloride]	inactive: 3.38
Cl.O=C1CN2Cc3c(ccc(Cl)c3Cl)NC2=N1 [Anagrelide hydrochloride]	inactive: 1.55
COC(=O)C(N)Cc1ccc(Cl)cc1.Cl (racemic) [DL-p-Chlorophenylalanine methyl ester hydrochloride]	inactive: 0.812
CNCCCC1c2ccccc2C=Cc2ccccc21.Cl [Protriptyline hydrochloride]	inactive: 2.82
C[N+]1(C)CCCC(OC(=O)C(O)(c2ccccc2)c2ccccc2)C1.[Br-] (stereo not given)	inactive: 1.44
C[C@@H]1CCN(C(=O)CC#N)C[C@@H]1N(C)c1ncnc2[nH]ccc12.O=C(O)CC(O)(CC(=O)O)C(=O)O [Tofacitinib Citrate]	inactive: 2.22
CC(C)NC[C@H](O)c1ccc(O)c(O)c1.Cl [(-)-Isoproterenol hydrochloride]	inactive: -0.0274
CC1=C(/C=C/C(C)=C/C=C/C(C)=C/C(=O)O)C(C)(C)CCC1 [Retinoic acid]	inactive: 0.864
CC1=C(/C=C/C(C)=C/C=C/C(C)=C/C(=O)O)C(C)(C)CCC1	inactive: 2.51
CCN1CCN(C(=O)NC(C(=O)N[C@@H]2C(=O)N3[C@@H]2SC(C)(C)[C@@H]3C(=O)[O-])c2ccccc2)C(=O)C1=O.[Na+] (stereo not given in full)	inactive: 1.81
NC(=O)NC(=O)Cc1ccccc1	inactive: 0.129
Cl.O=c1n(CCCN2CCN(c3cccc(Cl)c3)CC2)nc2ccccn12 [Trazodone hydrochloride]	inactive: 2.69
Cl.O=c1n(CCCN2CCN(c3cccc(Cl)c3)CC2)nc2ccccn12	inactive: 1.78
C[N+](C)(C)CCO.[Cl-] [Choline chloride]	inactive: 1.45

SMILES	cell-cell fusion (z-score)
C[N+](C)(C)CCO.[Cl-]	inactive: 2.97
COc1c(Cl)c(C)c(C(=O)Oc2cc(C)c(C(=O)O)c(O)c2)c(O)c1Cl	inactive: 4.28
CC(C)(C)c1cc(NC(=O)Nc2ccc(-c3cn4c(n3)sc3cc(OCCN5CCOCC5)ccc34)cc2)no1 [Quizartinib (AC220)]	inactive: 0.499
CC1(C)C2CCC1(C)C(O)C2 (stereo not given)	inactive: 1.49
CSCC[C@H](NC(=O)[C@H](Cc1c[nH]c2ccccc12)NC(=O)[C@H](C)NC(=O)OC(C)(C)C)C(=O)N[C@@H](CC(=O)O)C(=O)N[C@@H](Cc1ccccc1)C(N)=O	inactive: 2.55
CN(C)CCOC(c1ccccc1)c1ccccc1.Cn1c(=O)c2[nH]c(Cl)nc2n(C)c1=O	inactive: 1.82
CN(N=O)C(=O)N[C@@H]1[C@@H](O)[C@H](O)[C@@H](CO)O[C@@H]1O [Streptozocin]	inactive: 0.631
CN(N=O)C(=O)N[C@@H]1[C@@H](O)[C@H](O)[C@@H](CO)O[C@@H]1O	inactive: 2.41
O=C(O)/C=C/C(=O)O.OCCOCCN1CCN(C2=Nc3ccccc3Sc3ccccc32)CC1.OCCOCCN1CCN(C2=Nc3ccccc3Sc3ccccc32)CC1 [Quetiapine Fumarate]	inactive: 2.65
C[C@@H](O)[C@H]1C(=O)N2C(C(=O)O)=C(S[C@@H]3CN[C@H](CNS(N)(=O)=O)C3)[C@H](C)[C@H]12.O [Doripenem Hydrate]	inactive: 1.57
COCCOc1cc2ncnc(Cl)c2cc1OCCOC	inactive: 2.13
O=P(O)(O)C(O)(Cn1ccnc1)P(=O)(O)O [Zoledronic Acid]	inactive: 1.52
Nc1ccc(S(=O)(=O)Nc2nccs2)cc1	inactive: 2.7
CC(C)OC(=O)[C@H](C)N[P@](=O)(CO[C@H](C)Cn1cnc2c(N)ncnc21)Oc1ccccc1 [Tenofovir alafenamide]	inactive: 3.04
CCCN1CCC[C@H](c2cccc(O)c2)C1.Cl [R(+)-3PPP hydrochloride]	inactive: 0.188
NC(=O)c1cn(Cc2c(F)cccc2F)nn1 [Rufinamide]	inactive: 2.16
O=C(Nc1cccnc1)N1CCC(Cc2cccc(Oc3ccc(C(F)(F)F)cn3)c2)CC1	inactive: -0.0524
Cc1c(O)c(=O)ccn1C	inactive: 1.76
CCCCCCCCCCCCCCCCCCN(CCCCCCCCCCCCCCCCCC)CCCN(CCO)CCO [Avridine]	inactive: 3.01
COc1ccc(-c2ccc3cc(C(=O)O)ccc3c2)cc1C12CC3CC(CC(C3)C1)C2 [Adapalene]	inactive: 1.46
C[C@H](CCC(=O)O)[C@H]1CC[C@H]2[C@@H]3[C@@H](O)C[C@@H]4C[C@H](O)CC[C@]4(C)[C@H]3CC[C@]12C [Ursodeoxycholic acid]	inactive: 3.32
CC(S)C(=O)NCC(=O)O (stereo not given) [Tiopronin]	inactive: 3.31

Nothing new here: an excerpt of the list.
SMILES	cell-cell fusion (z-score)
NC(=O)c1cn(Cc2c(F)cccc2F)nn1 [Rufinamide]	inactive: 2.16
O=C(Nc1cccnc1)N1CCC(Cc2cccc(Oc3ccc(C(F)(F)F)cn3)c2)CC1	inactive: -0.0524
Cc1c(O)c(=O)ccn1C	inactive: 1.76
